Construct, isoform or probe ends are uncertain for at least one entry. Where a protein sequence is shown, tags need not be part of it.
Molecular target: T1, Int-h/218 (Lambda phage) (UniProt P03700)
T1 sequence: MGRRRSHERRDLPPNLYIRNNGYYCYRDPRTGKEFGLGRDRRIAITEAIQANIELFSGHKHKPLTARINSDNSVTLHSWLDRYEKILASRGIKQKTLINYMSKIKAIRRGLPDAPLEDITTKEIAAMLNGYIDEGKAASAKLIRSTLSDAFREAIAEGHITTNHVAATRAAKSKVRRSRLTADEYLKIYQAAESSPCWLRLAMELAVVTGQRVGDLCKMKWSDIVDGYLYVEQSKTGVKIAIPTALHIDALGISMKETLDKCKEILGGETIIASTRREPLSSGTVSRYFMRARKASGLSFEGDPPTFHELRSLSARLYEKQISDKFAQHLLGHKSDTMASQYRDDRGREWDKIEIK
Assay: enzyme reaction in vitro
Settings: in vitro intramolecular attH4X x attP4X recombination on supercoiled plasmid; scIHF, 200 mM KCl, TE, 37 C 2 h; purified recombinant protein

Sequence | activity on this sequence
CTTTATTTCATTAAGTTG (double strand) [attH4X] | active
TCTGTTACAGGTCACTAATACCATCTAAGTAGTTGATTCATAGTGACTGCATATGTTGTGTTTTACAGTATTATGTAGTCTGTTTTTTATGCAAAATCTAATTTAATATATTGATATTTATATCATTTTACGTTTCTCGTTCAGCTTTATTTCATTAAGTTGGCATTATAAAAAAGCATTGCTTATCAATTTGTTGCAACGAACAGGTCACTATCAGTCAAAATACAATCATTATTTGATTTC (double strand) [attP4X] | active

Source: patent US20170362606
